The subject of this assay is P388 leukemia ip, CD2F1 mice, survival T/C. Put plainly: NCI In Vivo Anticancer Drug Screen. Data for tumor model P388 Leukemia (intraperitoneal) in CD2F1 (CDF1) mice. As to conditions: T/C endpoint: median survival time, higher T/C = longer survival.
Where [1] appears, read: dose: 5.0 mg/kg/injection, schedule: Q04DX003 (ip), vehicle: saline with Tween-80.
[2] abbreviates: dose: 10.0 mg/kg/injection, schedule: Q04DX003 (ip), vehicle: saline with Tween-80.
The mark [3] stands for this setting: dose: 20.0 mg/kg/injection, schedule: Q04DX003 (ip), vehicle: saline with Tween-80.
Where [4] appears, read: dose: 240.0 mg/kg/injection, schedule: Q01DX005 (ip), vehicle: Klucel (hydroxypropylcellulose) (HPC).
The mark [5] stands for this setting: dose: 200.0 mg/kg/injection, schedule: Q01DX009 (ip), vehicle: saline with Tween-80.
Where [6] appears, read: dose: 50.0 mg/kg/injection, schedule: Q01DX005 (ip), vehicle: Klucel (hydroxypropylcellulose) (HPC).
[7] abbreviates: dose: 100.0 mg/kg/injection, schedule: Q01DX005 (ip), vehicle: Klucel (hydroxypropylcellulose) (HPC).
Where [8] appears, read: dose: 200.0 mg/kg/injection, schedule: Q01DX005 (ip), vehicle: Klucel (hydroxypropylcellulose) (HPC).
The mark [9] stands for this setting: dose: 200.0 mg/kg/injection, schedule: Q04DX003 (ip), vehicle: saline with Tween-80.
[10] abbreviates: dose: 100.0 mg/kg/injection, schedule: Q01DX001 (ip), vehicle: saline.
Setting [11] is: dose: 400.0 mg/kg/injection, schedule: Q04DX003 (ip), vehicle: saline with Tween-80.
[12] abbreviates: dose: 240.0 mg/kg/injection, schedule: Q01DX005 (ip), vehicle: saline.

The list is a part of this screen's results and no random one: it gathers tests that were run many times, whatever their T/C, doses with no T/C, and many T/C values between a quarter and a half above the control. Further doses and runs are listed elsewhere. T/C: endpoint of the treated group in % of that of the vehicle group. Some doses have a count of surviving animals in place of a T/C: the source holds a T/C of zero for them, seemingly a mark for toxic or unscored doses. Some doses without a T/C left all or most animals alive at the check, yet need not have been tolerated: the source hardly ever lists a survival T/C far under the control, and the zero likely stands for such cases as well. Survivors were counted at the toxicity check, usually on the fifth day, unless a day is given; later deaths do not show. Schedules are NCI's codes, taken here to give the interval after Q, in days (D) or hours (H), and the number of doses after X. Where survival is the endpoint, this PubChem deposit counts one and a half times the control or more as active, and values a quarter to a half above the control carry no call in these data; other NCI protocols may use other cut-offs. Some entries hold several experiments; the values are given in rising order.

For `CC(=O)Nc1cc(N(CCOS(C)(=O)=O)CCOS(C)(=O)=O)ccc1N=O`, the T/C (dose: 0.02 mg/kg/injection, schedule: Q01DX009 (ip), vehicle: saline) was 141 % of control; the T/C (dose: 0.04 mg/kg/injection, schedule: Q01DX009 (ip), vehicle: saline) was 137 % of control; the T/C (dose: 0.62 mg/kg/injection, schedule: Q04DX003 (ip), vehicle: saline sonified) is 145 % of control. Further, the survivor count reads like this: under setting [1], 5 of 6; under setting [2], 2 of 6; under setting [3], 0 of 6; (dose: 310.0 micrograms/kg/injection, schedule: Q01DX009 (ip), vehicle: saline) 6 of 6.

On to `C[C@]12CC[C@H](OC(=O)COc3ccc(N(CCCl)CCCl)cc3)C[C@@H]1CC[C@@H]1[C@@H]2CC[C@]2(C)NC(=O)CC[C@@H]12`, for which the T/C (dose: 4.0 mg/kg/injection, schedule: Q01DX009 (ip), vehicle: saline with Tween-80) is 139, 140, 149 % of control. Also, the survivor count (dose: 64.0 mg/kg/injection, schedule: Q01DX009 (ip), vehicle: saline with Tween-80) is listed as 6 of 6.

With `CN(C)/C=C1\C(C(C)(C)C)=CC(C(C)(C)C)=C1N=O`, the survivor count under setting [4] is 1 of 6.

With `Cc1ccc(NCCN(C)C)c2c(=O)c3ccc(O)cc3sc12`, the T/C under setting [5] was 126 % of control.

As for `O=C(NC(Cc1ccccc1)C(=O)O)OCc1ccccc1` (centres undefined) (tested in a mixture with another compound), the survivor count under setting [6] is given as 1 of 6, the survivor count under setting [7] is listed as 0 of 6 and the survivor count under setting [8] is on record as 0 of 6.

In the case of `Nc1cc(Nc2cccc(Cl)c2)nc(N)n1`, under setting [9], the survivor count is 2 of 6.

Turning to `[N-]=[N+]=Nc1ccccc1C(=O)NCCNC(=O)c1ccccc1N=[N+]=[N-]`, the survivor count (dose: 25.0 mg/kg/injection, schedule: Q01DX005 (ip), vehicle: saline with Tween-80) was 6 of 6; the survivor count (dose: 50.0 mg/kg/injection, schedule: Q01DX005 (ip), vehicle: saline with Tween-80) was 6 of 6; the survivor count (dose: 100.0 mg/kg/injection, schedule: Q01DX005 (ip), vehicle: saline with Tween-80) is 6 of 6.

Regarding `CCCCCCCCSCc1ccc(Nc2ccc(Nc3ccc(CSCCCCCCCC)cc3)cc2)cc1`, the T/C (dose: 200.0 mg/kg/injection, schedule: Q01DX009 (ip), vehicle: acetone) is 136 % of control.

In the case of `Nc1nc2nc(CBr)c(CBr)nc2c(=O)[nH]1`, the T/C (dose: 50.0 mg/kg/injection, schedule: Q01DX009 (ip), vehicle: saline with Tween-80) is 125 % of control and the T/C (dose: 100.0 mg/kg/injection, schedule: Q01DX009 (ip), vehicle: saline with Tween-80) is 127 % of control. Under setting [5], the survivor count is on record as 0 of 6.

As to `CCCCC[N+]1(CC)CCCCC1`, the survivor count is given as 0 of 6 (dose: 50.0 mg/kg/injection, schedule: Q01DX009 (ip), vehicle: saline); 0 of 6 (dose: 100.0 mg/kg/injection, schedule: Q01DX009 (ip), vehicle: saline); 0 of 6 (dose: 200.0 mg/kg/injection, schedule: Q01DX009 (ip), vehicle: saline).

As for `C#CCn1c(=O)c2cc3ccccc3nc2n(CC#C)c1=O`, the survivor count under setting [8] is 6 of 6.

With `CN(C)CCO/N=C1/CC[C@H]2[C@@H]3CC[C@H]4C[C@H](O)CC[C@]4(C)[C@H]3CC[C@]12C`, the survivor count under setting [6] is 2 of 6, the survivor count under setting [7] was 0 of 6 and the survivor count under setting [8] is 0 of 6.

On to `O=C1c2c(O)ccc(O)c2C(=O)c2c(NCCCCCO)ccc(NCCCCCO)c21`, for which the survivor count (dose: 10.0 mg/kg/injection, schedule: Q01DX009 (ip), vehicle: Klucel (hydroxypropylcellulose) (HPC)) is 6 of 6.

Take `CCCCCCCC(=O)[O][Hg][CH2]C1COC([CH2][Hg][O]C(=O)CCCCCCC)CO1` (centres undefined): the T/C (dose: 25.0 mg/kg/injection, schedule: Q01DX009 (ip), vehicle: saline sonified) is 130 % of control.

As for `COc1ccc(CC2c3cc(OC)c(OC)c(OC)c3CC[N+]2(C)C)cc1Oc1ccc(CC2c3cc4c(c(OC)c3CCN2C)OCO4)cc1` (centres undefined), the survivor count is recorded as 1 of 6 (dose: 12.5 mg/kg/injection, schedule: Q04DX002 (ip), vehicle: saline); 0 of 6 (dose: 100.0 mg/kg/injection, schedule: Q04DX002 (ip), vehicle: saline with Tween-80); 0 of 6 (dose: 200.0 mg/kg/injection, schedule: Q04DX002 (ip), vehicle: saline with Tween-80); 0 of 6 (dose: 400.0 mg/kg/injection, schedule: Q04DX002 (ip), vehicle: saline with Tween-80).

For `CC(=O)OC1(C)C(=O)OC/C2=C/CN(C)CCC(OC(=O)C(O)(C(C)Cl)CC1C)C2=O` (centres undefined), the survivor count was 1 of 6 under setting [7]; 0 of 6 under setting [8]; 0 of 6 (dose: 400.0 mg/kg/injection, schedule: Q01DX005 (ip), vehicle: Klucel (hydroxypropylcellulose) (HPC)).

Turning to `O=C(O)c1cc(Cl)ccc1-n1c(=O)[nH]c2ccccc2c1=O`, the survivor count is 0 of 6 (dose: 100.0 mg/kg/injection, schedule: Q04DX003 (ip), vehicle: Klucel (hydroxypropylcellulose) (HPC)); 0 of 6 (dose: 200.0 mg/kg/injection, schedule: Q04DX003 (ip), vehicle: Klucel (hydroxypropylcellulose) (HPC)); 0 of 6 (dose: 400.0 mg/kg/injection, schedule: Q04DX003 (ip), vehicle: Klucel (hydroxypropylcellulose) (HPC)).

Consider `O=C(c1ccc(O)cc1)c1ccc(O)cc1O`, for which, under setting [10], the T/C was 125 % of control and the survivor count is listed as 6 of 6.

For `O=C(O)CCc1c[nH]c2ccc(N(CCCl)CCCl)cc12`, the survivor count by setting is: (dose: 0.3 mg/kg/injection, schedule: Q04DX003 (ip), vehicle: saline with Tween-80) 5 of 6; under setting [1], 3 of 6; under setting [2], 1 of 6; under setting [3], 0 of 6; (dose: 100.0 mg/kg/injection, schedule: Q04DX003 (ip), vehicle: saline with Tween-80) 0 of 6; under setting [9], 0 of 6. Moreover, the survivor count under setting [11] is 0 of 6. The T/C is, setting by setting: (dose: 0.5 mg/kg/injection, schedule: Q01DX009 (ip), vehicle: saline) 129 % of control; (dose: 1.0 mg/kg/injection, schedule: Q01DX009 (ip), vehicle: saline) 141 % of control.

`O=C1C2OC2C(O)(CCN(Cc2ccc3c(c2)OCO3)C(=O)C(F)(F)F)C2OC12` (centres undefined): the survivor count is 0 of 6 under setting [10]; 0 of 6 (dose: 200.0 mg/kg/injection, schedule: Q01DX001 (ip), vehicle: saline); 1 of 6 (dose: 400.0 mg/kg/injection, schedule: Q01DX001 (ip), vehicle: saline).

On to `Cc1ccc(S(=O)(=O)Nc2ccc3ncccc3c2)cc1`, for which the survivor count under setting [11] is recorded as 1 of 6.

In the case of `CN1C(C(=O)Nc2nccs2)=C(O)c2ccccc2S1(=O)=O`, the survivor count (dose: 240.0 mg/kg/injection, schedule: Q01DX005 (ip), vehicle: saline with Tween-80) is 3 of 6.

`Nc1nc(Nc2ccccc2)nc(-c2ccccc2)n1`: the survivor count (dose: 200.0 mg/kg/injection, schedule: Q01DX005 (ip), vehicle: saline with Tween-80) is on record as 5 of 6.

Regarding `CCCCCC(CN(C)C)C(=O)/C=C/c1ccc(Br)cc1` (centres undefined), the survivor count (dose: 100.0 mg/kg/injection, schedule: Q01DX005 (ip), vehicle: saline) is 0 of 6 and the survivor count (dose: 200.0 mg/kg/injection, schedule: Q01DX005 (ip), vehicle: saline) is on record as 0 of 6.

As to `CCc1c(O)c2c(n(C)c1=O)CC(C)(C)NC2=S`, the survivor count under setting [4] is on record as 5 of 6.

For the compound `CC(=O)C(C[n+]1ccccc1)c1ccccc1` (centres undefined), the survivor count runs as follows: (dose: 120.0 mg/kg/injection, schedule: Q01DX005 (ip), vehicle: saline) 4 of 6; under setting [12], 0 of 6.

Regarding `C=CCOc1cc2c(cc1Cc1cc(OC)c(OC)c(OC)c1)OCO2`, the survivor count under setting [12] is on record as 0 of 6.

The values above are taken from PubChem BioAssay AID330 (DTP/NCI, 2004).
